Data: publication PMC6888004 (International Journal of Molecular Sciences, 2019)

Assay: general procedure: peptide synthesis; COMU/NMM (conjugation)
Conditions: whole synthesis, scale 150 mg resin

## [D-Lys6(crizotinib*)]-GnRH-I
  isolated mass: 33 mg
